# No constants are given. Whether binding was seen depends on the method and setting. Some entries that bind do so weakly or less than the wild type.
# Protein sequences, listed by entry. Tags and fused reporters are not part of them. Residues count along the entry.
# UniProt P16235, residues 27-700: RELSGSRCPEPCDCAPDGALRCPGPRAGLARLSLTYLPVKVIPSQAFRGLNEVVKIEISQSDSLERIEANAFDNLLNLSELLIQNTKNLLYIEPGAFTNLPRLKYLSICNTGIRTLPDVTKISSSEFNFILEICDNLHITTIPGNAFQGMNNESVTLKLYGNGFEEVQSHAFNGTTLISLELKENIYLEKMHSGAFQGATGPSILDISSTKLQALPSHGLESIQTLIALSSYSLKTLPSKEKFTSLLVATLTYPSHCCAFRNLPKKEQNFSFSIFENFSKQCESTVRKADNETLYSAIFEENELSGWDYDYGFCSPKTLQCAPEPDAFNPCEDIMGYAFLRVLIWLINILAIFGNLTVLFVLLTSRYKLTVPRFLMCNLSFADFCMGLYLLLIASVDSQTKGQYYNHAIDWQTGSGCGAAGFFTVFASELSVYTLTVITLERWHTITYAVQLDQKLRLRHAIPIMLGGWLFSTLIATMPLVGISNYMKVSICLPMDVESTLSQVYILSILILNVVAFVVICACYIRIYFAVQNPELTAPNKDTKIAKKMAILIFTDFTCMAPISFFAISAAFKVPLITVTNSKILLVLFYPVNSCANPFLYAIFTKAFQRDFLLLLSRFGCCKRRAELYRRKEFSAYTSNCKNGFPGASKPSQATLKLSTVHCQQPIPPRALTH
# Biological target: rat lutropin receptor (LHR) (rat) (UniProt P16235)
# Test: LHR assays
row,binding,Substance
1,binds,"hCG-αCTδ116/135,138C + hCG β-subunit analog with cysteine in place of Arg94 (from UniProt P0DN86 21-165) (ligand)"

# Biological target: rat lutropin receptor (LHR) (rat) (UniProt P16235)
# Test: LHR binding and signaling assays
row,binding,Substance
1,binds,"hCG-αCTδ116/135,138C + hCG β-subunit analog with cysteine in place of Ser96 (from UniProt P0DN86 21-165) (ligand)"
2,binds,"hCG-αCTδ116/135,138C + hCG β-subunit analog with cysteine in place of Thr97 (from UniProt P0DN86 21-165) (ligand)"
3,binds,"hCG-αCTδ116/135,138C + hCG β-subunit analog with cysteine in place of Thr98 (from UniProt P0DN86 21-165) (ligand)"
4,binds,hCG-αK44A (from UniProt P0DN86 21-165) (ligand)
5,binds,hCG-αK44R (from UniProt P0DN86 21-165) (ligand)

# — patent US20060177894A1
